# Results are given in words; binding and its absence hold for the method and conditions named. Some binding calls cover weakened binding; strength is not graded here.
# T1: mouse TMEM16A(ac) isoform (mouse), Q8BHY3
# T1 chain: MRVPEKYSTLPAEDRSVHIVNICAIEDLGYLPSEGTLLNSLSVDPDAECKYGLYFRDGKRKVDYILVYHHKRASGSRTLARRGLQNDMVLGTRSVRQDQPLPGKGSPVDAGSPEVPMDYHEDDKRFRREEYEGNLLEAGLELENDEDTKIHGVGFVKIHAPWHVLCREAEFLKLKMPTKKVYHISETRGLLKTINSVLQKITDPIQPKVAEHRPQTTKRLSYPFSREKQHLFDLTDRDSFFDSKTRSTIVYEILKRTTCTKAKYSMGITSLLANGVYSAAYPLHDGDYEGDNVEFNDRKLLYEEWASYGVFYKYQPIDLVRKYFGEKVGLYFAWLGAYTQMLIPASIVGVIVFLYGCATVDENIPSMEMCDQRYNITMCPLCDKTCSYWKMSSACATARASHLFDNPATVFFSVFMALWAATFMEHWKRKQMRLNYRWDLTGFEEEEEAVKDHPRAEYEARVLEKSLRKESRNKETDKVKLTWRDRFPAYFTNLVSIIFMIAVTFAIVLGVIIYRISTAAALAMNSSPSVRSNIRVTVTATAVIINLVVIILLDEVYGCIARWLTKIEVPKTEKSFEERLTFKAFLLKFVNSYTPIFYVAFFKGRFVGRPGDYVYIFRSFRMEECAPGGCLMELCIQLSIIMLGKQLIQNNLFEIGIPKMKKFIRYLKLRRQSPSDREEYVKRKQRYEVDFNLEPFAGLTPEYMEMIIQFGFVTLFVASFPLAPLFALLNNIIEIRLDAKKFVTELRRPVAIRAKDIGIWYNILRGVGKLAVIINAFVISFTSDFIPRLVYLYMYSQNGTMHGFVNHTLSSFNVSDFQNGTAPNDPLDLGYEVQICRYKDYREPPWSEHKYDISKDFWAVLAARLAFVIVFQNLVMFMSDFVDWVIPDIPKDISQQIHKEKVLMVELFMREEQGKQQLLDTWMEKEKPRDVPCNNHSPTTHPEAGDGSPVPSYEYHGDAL
# Molecular target: T1, mouse TMEM16A(ac) isoform (mouse), …
# Assay: cryo-EM structure; purified mTMEM16A at 3 mg/ml in 0.12% digitonin, 20 mM HEPES pH 7.5, 150 mM NaCl, 0.5 mM CaCl2; single particle reconstruction with C2 symmetry imposed, 6.6 Å; poly-alanine model; both purified
# Conditions: remark: other sources report otherwise
binder,measurement,value
"mouse TMEM16A(ac) isoform, Q8BHY3 1-960 (natural protein) MRVPEKYSTLPAEDRSVHIVNICAIEDLGYLPSEGTLLNSLSVDPDAECKYGLYFRDGKRKVDYILVYHHKRASGSRTLARRGLQNDMVLGTRSVRQDQPLPGKGSPVDAGSPEVPMDYHEDDKRFRREEYEGNLLEAGLELENDEDTKIHGVGFVKIHAPWHVLCREAEFLKLKMPTKKVYHISETRGLLKTINSVLQKITDPIQPKVAEHRPQTTKRLSYPFSREKQHLFDLTDRDSFFDSKTRSTIVYEILKRTTCTKAKYSMGITSLLANGVYSAAYPLHDGDYEGDNVEFNDRKLLYEEWASYGVFYKYQPIDLVRKYFGEKVGLYFAWLGAYTQMLIPASIVGVIVFLYGCATVDENIPSMEMCDQRYNITMCPLCDKTCSYWKMSSACATARASHLFDNPATVFFSVFMALWAATFMEHWKRKQMRLNYRWDLTGFEEEEEAVKDHPRAEYEARVLEKSLRKESRNKETDKVKLTWRDRFPAYFTNLVSIIFMIAVTFAIVLGVIIYRISTAAALAMNSSPSVRSNIRVTVTATAVIINLVVIILLDEVYGCIARWLTKIEVPKTEKSFEERLTFKAFLLKFVNSYTPIFYVAFFKGRFVGRPGDYVYIFRSFRMEECAPGGCLMELCIQLSIIMLGKQLIQNNLFEIGIPKMKKFIRYLKLRRQSPSDREEYVKRKQRYEVDFNLEPFAGLTPEYMEMIIQFGFVTLFVASFPLAPLFALLNNIIEIRLDAKKFVTELRRPVAIRAKDIGIWYNILRGVGKLAVIINAFVISFTSDFIPRLVYLYMYSQNGTMHGFVNHTLSSFNVSDFQNGTAPNDPLDLGYEVQICRYKDYREPPWSEHKYDISKDFWAVLAARLAFVIVFQNLVMFMSDFVDWVIPDIPKDISQQIHKEKVLMVELFMREEQGKQQLLDTWMEKEKPRDVPCNNHSPTTHPEAGDGSPVPSYEYHGDAL",binding,binds

# From article PMC5470873
